Source: article PMC12077264
Substitutions are numbered along the chain they refer to. No constants are given. Whether binding was seen depends on the method and setting. Binding seen in cells or lysates may run through a third protein. Binding calls can cover weak binding; strength is not graded here. Sequences can lack the tags named with a protein.

Amino acid sequences for entries named in this document (tags omitted). A change or cut given only in a name is not applied to a line headed by its entry.
UniProt P69490: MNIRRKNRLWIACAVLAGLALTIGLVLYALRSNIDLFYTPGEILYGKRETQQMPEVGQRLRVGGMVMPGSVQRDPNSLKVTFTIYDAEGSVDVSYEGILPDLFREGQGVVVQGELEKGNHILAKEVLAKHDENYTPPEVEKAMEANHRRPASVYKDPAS

Key:
Test in all cases: pull-down; GST affinity purification via the N-terminal GST tag on CcmC of co-expressed GST:CcmCDE(H130A) or GST:CcmC(D:flag)E(H130A) from E. coli; 5 ug affinity purified protein on SDS-PAGE, Coomassie stain and α-GST, α-CcmE, α-FLAG immunoblots
[1] = target: T1, GST:CcmC(N169C), in GST:CcmCDE(H130A) (E. coli) (UniProt P0ABM1)
T1 sequence: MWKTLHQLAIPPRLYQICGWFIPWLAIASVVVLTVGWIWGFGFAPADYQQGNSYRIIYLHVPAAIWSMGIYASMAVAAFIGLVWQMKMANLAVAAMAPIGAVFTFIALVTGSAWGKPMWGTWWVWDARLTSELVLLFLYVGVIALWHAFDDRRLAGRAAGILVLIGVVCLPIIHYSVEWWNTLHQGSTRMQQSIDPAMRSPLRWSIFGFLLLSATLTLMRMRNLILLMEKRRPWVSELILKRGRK

[2] = target: T2, GST:CcmC(L227C), in GST:CcmCDE(H130A) (E. coli) (UniProt P0ABM1)
T2 sequence: T1 sequence with C169N, L227C

[3] = target: T3, GST:CcmC(L145C), in GST:CcmCDE(H130A) (E. coli) (UniProt P0ABM1)
T3 sequence: T1 sequence with L145C, C169N

[4] = target: T4, GST:CcmC(V163C), in GST:CcmCDE(H130A) (E. coli) (UniProt P0ABM1)
T4 sequence: T1 sequence with V163C, C169N

[5] = target: T5, GST:CcmC(A101C), in GST:CcmCDE(H130A) (E. coli) (UniProt P0ABM1)
T5 sequence: T1 sequence with A101C, C169N

[6] = target: T6, GST:CcmC(I143C), in GST:CcmCDE(H130A) (E. coli) (UniProt P0ABM1)
T6 sequence: T1 sequence with I143C, C169N

[7] = target: T7, GST:CcmC(Y71C), in GST:CcmCDE(H130A) (E. coli) (UniProt P0ABM1)
T7 sequence: T1 sequence with Y71C, C169N

Measured: binding

CcmE(H130A) (from UniProt P69490)
binds: all assays above
